# Source: PubChem BioAssay AID662 (National Center for Advancing Translational Sciences (NCATS), 2007)
# The list shows a part of the results. The main result of the screen is listed elsewhere. These columns were measured beside it and carry no call. The list favours compounds with an active or inconclusive main result. Words in brackets tell the shape of the fitted curve; partial curves, single points and poor fits give uncertain potencies.
# Assay: Cell signaling CRE-BLA (Fsk stim)
# Settings: CHO CRE-bla reporter (cAMP response element driving beta-lactamase), forskolin EC10, beta-lactamase ratio; measured here: 460 nm blue channel
# Outline: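 Forskolin analogue NKH 477 at EC10 stimulated CRE-driven beta-lactamase in CHO cells alongside compound dilution series. Beta-lactamase was measured with CCF4, excitation 405 nm, emission ratio 460/530 nm.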
row,Structure (SMILES),AC50
1,CCOC(=O)c1cnc2c(Cl)c(Cl)ccc2c1N1CCN(C)CC1,"10 µM [rising, single point]"
2,O=C(CCN1C(=O)C2CC=CCC2C1=O)N1CCN(c2ccccn2)CC1 (centres undefined),"25.1 µM [rising, single point]"
3,C[C@@H](CN1CCC(Cc2ccccc2)CC1)[C@@H](O)c1ccc(O)cc1,"15.8 µM [falling, partial curve, poor fit]"
4,Cc1ccc2nc3c(cc(C#N)c(=O)n3CCN3CCOCC3)c(=O)n2c1,"10 µM [rising, partial curve]"
5,COc1ccc(OC)c(N2C(=O)C(Cl)=C(N3CCOCC3)C2=O)c1,"0.00316 µM [falling, full curve, poor fit]"
6,Fc1ccccc1N1CCN(c2nc3ccccc3n3nnnc23)CC1,"1 µM [rising, full curve, poor fit]"
7,COc1ccc(N2CC(C(=O)NCCCN3CCOCC3)CC2=O)cc1 (centres undefined),"0.398 µM [rising, partial curve]"
8,C=CCOc1ccc2ccccc2c1CNc1ncn[nH]1,"2 µM [falling, full curve, poor fit]"
9,CCOc1ccc(C2C=C(c3ccccc3)Nc3nnnn32)cc1 (centres undefined),"25.1 µM [rising, single point]"
10,COc1cc(C(=O)NC2CC3CCCC(C2)N3CC(=O)Nc2ccccc2)cc(OC)c1OC (centres undefined),"3.98 µM [rising, partial curve]"
11,CCNc1ncc2nc(-c3cc(F)cc(F)c3)c(=O)n(-c3ccccc3)c2n1,"2.51 µM [rising, full curve]"
12,Clc1cccc2sc(N3CCCCC3)nc12,"31.6 µM [falling, single point]"
13,CCOC(=O)c1cccc(NC(=O)CN(c2ccc(C)cc2)S(=O)(=O)c2c(C)n[nH]c2C)c1,"12.6 µM [rising, single point]"
14,Cc1ccc(-c2nn3c(C)nnc3s2)cc1NC(=O)c1ccc(OC(C)C)cc1,"7.94 µM [rising, partial curve]"
15,COc1cccc(-c2nccc(NCc3cnc(C)cn3)n2)c1,"10 µM [rising, partial curve]"
16,Cc1ccc(OCc2nnc(SCC(=O)N3CCOCC3)n2C)cc1,"0.631 µM [rising, partial curve]"
17,O=c1cc(-c2cccc3ccccc23)[nH][nH]1,"10 µM [falling, partial curve]"
18,O=C(CSc1nnc(-c2ccco2)n1-c1ccccc1)N1CCN(C(=O)c2ccco2)CC1,"5.01 µM [falling, single point]"
19,Cc1cc(C)c(C#N)c(SCS(=O)Cc2ccccc2)n1 (centres undefined),"12.6 µM [rising, single point]"

# Random excerpt: 2 records from the list, in no set order.
row,Structure (SMILES),AC50
16,Cc1ccc(OCc2nnc(SCC(=O)N3CCOCC3)n2C)cc1,"0.631 µM [rising, partial curve]"
15,COc1cccc(-c2nccc(NCc3cnc(C)cn3)n2)c1,"10 µM [rising, partial curve]"
